{"source": "paper PMC12830165", "about": "(The Journal of Biological Chemistry, 2025)", "test_system": "ORC1-5 (WT, ORC1ΔN) N78S (human)", "experiment": "fluorescence anisotropy", "conditions": "no ATP, 10 mM Mg acetate, 25 mM HEPES-KOH pH 7.6, 300 mM K glutamate, 10% glycerol, 1 mM DTT, 0.01% NP-40, 0 or 1 mM ATP, 1 nM DNA, 30 min at 22 °C, Hill fit (Kd,app), recombinant protein", "note": "For at least one entry, the source does not settle the construct or the ends of the probe. A weaker result is weaker than the reference pair of the same experiment. At least one verdict rests on a figure or table, not on a statement of the authors.", "data": [{"sequence": "TTTTGAAAAGCAAGCATAAAAGATCTAAACATAAAATCTG (double strand) [40 bp fluorescein dsDNA]", "values": [{"measurement": "binding result", "value": "binds more weakly"}]}]}
